# Screening data, single-dose tests

By UniProt entry, the sequences of proteins in these tests, tags left out. Residues count along the entry.
UniProt P9WPC5, whole entry: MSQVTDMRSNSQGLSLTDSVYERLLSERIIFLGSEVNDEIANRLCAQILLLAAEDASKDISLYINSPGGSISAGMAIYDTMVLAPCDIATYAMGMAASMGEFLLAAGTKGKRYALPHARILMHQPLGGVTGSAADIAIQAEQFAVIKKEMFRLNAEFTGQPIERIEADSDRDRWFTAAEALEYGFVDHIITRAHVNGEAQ
UniProt P9WPC3, whole entry partner: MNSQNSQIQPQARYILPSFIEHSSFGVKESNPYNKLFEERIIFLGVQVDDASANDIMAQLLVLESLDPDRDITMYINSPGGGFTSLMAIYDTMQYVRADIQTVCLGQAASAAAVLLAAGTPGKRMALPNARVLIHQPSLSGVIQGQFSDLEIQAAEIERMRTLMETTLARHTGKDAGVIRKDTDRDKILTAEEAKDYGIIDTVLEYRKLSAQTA
UniProt Q4DA54, 1-478: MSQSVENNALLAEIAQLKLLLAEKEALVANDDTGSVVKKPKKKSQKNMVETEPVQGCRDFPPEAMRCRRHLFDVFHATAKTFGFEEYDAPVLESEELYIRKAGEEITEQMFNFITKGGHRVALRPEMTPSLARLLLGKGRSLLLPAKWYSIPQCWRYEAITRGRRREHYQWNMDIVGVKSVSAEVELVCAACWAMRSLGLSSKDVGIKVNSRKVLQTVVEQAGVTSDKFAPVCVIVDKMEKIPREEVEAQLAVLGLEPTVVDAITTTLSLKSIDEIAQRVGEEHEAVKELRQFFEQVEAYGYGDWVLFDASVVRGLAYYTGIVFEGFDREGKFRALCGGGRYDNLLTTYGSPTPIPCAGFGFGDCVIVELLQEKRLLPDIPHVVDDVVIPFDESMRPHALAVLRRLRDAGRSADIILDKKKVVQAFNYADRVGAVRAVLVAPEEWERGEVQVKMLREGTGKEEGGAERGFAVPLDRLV
UniProt Q8IDJ8, 1-583: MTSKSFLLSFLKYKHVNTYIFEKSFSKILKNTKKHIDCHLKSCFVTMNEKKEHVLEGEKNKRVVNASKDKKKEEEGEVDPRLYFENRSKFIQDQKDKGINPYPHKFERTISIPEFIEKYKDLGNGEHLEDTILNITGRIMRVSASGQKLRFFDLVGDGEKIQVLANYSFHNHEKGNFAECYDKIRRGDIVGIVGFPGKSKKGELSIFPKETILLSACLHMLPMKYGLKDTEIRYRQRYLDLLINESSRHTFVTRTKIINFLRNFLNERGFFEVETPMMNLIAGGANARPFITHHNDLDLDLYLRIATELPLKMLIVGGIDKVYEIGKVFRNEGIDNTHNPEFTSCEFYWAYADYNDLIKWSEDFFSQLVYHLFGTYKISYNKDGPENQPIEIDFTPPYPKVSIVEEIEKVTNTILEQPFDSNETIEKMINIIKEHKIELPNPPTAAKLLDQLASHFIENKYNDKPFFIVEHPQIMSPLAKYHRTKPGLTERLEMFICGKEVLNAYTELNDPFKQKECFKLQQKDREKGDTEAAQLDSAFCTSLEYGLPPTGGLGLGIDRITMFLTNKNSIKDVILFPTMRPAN
UniProt I6X8D2, whole entry: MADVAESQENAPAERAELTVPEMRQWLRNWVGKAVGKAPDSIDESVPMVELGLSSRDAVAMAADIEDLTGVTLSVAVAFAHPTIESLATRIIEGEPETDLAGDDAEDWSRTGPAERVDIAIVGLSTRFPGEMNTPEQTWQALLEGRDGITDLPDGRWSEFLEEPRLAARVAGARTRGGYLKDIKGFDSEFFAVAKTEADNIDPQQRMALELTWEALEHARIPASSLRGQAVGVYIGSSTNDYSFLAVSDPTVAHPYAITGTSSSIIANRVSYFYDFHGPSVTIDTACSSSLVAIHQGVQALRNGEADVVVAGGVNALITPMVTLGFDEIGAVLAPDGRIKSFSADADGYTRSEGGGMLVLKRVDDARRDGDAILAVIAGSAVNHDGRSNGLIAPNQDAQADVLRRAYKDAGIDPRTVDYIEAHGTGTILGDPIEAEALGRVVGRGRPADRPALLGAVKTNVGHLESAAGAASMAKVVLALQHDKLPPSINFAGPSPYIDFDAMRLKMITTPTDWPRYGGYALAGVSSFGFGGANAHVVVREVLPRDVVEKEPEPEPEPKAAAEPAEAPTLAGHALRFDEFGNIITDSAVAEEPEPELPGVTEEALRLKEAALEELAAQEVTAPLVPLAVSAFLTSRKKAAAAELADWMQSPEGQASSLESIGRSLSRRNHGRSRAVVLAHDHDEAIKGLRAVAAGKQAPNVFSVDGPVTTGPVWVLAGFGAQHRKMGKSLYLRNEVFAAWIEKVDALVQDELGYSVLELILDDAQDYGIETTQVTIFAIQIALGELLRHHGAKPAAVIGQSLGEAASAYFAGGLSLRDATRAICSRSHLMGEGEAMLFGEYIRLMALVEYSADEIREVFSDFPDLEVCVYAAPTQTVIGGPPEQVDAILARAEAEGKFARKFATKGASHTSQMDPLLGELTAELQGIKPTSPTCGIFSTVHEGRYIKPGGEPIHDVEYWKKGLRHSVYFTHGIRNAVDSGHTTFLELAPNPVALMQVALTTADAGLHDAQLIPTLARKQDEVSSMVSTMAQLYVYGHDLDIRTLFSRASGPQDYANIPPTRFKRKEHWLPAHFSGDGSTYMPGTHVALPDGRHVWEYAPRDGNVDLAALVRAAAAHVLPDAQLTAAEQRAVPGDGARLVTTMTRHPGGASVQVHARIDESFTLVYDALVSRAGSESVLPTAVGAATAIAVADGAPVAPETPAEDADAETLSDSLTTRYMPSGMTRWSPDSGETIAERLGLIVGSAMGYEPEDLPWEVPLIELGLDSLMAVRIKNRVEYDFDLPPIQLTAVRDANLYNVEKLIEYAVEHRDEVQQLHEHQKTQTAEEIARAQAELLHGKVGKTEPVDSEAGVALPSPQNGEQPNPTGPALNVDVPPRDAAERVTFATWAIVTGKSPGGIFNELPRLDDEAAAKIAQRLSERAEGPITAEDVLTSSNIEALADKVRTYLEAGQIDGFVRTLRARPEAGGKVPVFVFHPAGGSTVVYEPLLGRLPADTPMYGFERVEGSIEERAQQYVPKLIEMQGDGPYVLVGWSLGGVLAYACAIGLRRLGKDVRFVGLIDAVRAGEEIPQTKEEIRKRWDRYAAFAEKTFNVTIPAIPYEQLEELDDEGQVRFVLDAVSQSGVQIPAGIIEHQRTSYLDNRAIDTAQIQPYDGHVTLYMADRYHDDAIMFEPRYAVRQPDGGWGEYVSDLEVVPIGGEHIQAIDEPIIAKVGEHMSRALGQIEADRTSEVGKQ

Source: ChEMBL document CHEMBL3988442, “University of Dundee, Small-Polar-MMV Screening Library” (2021).

Results are given as percent effect. How 0% and 100% were set is not recorded. Most values in the screen are low, and negative values occur. Compounds were drawn at random from those tested, without regard to their results.

ClpP1P2: 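ClpP1P2, Mycobacterium tuberculosis (UniProt P9WPC5 and UniProt P9WPC3). Protease assay of ClpP1P2, read by the AMC dye that it sets free. Concentration: 50 µM. Direction is inferred from only a few compounds that gave an IC50; most scored high, so higher reads as stronger inhibition. Most other retested compounds had strongly negative values. Of about 69,000 compounds tested this way, about 10 (0.015%) reached 50% or more in at least one test.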
TcHisRS: 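Histidine-tRNA ligase, Trypanosoma cruzi CL Brener (UniProt Q4DA54). Enzyme assay of histidyl-tRNA synthetase; the read-out is not stated. Tested at 30 µM. Direction is inferred from retests: higher values go with stronger inhibition. Size under these conditions: about 69,000 compounds, about 31 of them at 50% or above in at least one test.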
PfKRS1: 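Lysine-tRNA ligase, Plasmodium falciparum 3D7 (UniProt Q8IDJ8). Enzyme assay of the cytosolic lysyl-tRNA synthetase in 384-well plates, read by luminescence. Concentration: 30 µM. Direction is inferred from only a few compounds that gave an IC50; most scored high, so higher reads as stronger inhibition. Size under these conditions: about 69,000 compounds, about 49 of them at 50% or above in at least one test.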
Pks13 thioesterase: 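Enzyme assay of the thioesterase domain of polyketide synthase 13; the read-out is not stated. Target: Polyketide synthase Pks13, Mycobacterium tuberculosis (UniProt I6X8D2). Tested at 30 µM. The record gives no direction; the compounds picked for IC50 retests had high values, so higher reads as stronger inhibition. Size under these conditions: about 67,000 compounds, about 300 of them at 50% or above in at least one test.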

COc1cccc2c3c(c(=O)[nH]c12)CCC(C)(C)O3 read ClpP1P2: 2.997%; TcHisRS: -1.031%; PfKRS1: 0.7317%; Pks13 thioesterase: -7.263%. With CC(C)Nc1ncc(CN2C[C@@H](CN3CCC(O)CC3)[C@@H](CO)C2)cn1 the screen gave ClpP1P2: -9.928%; TcHisRS: 2.905%; PfKRS1: 3.76%; Pks13 thioesterase: -11.44%. Cc1nc(CNC(C)c2cccc(N3CCCC3=O)c2)cs1 (stereo unspecified) read ClpP1P2: 4.926%; TcHisRS: 12.07%; PfKRS1: 5.708%; Pks13 thioesterase: 8.397%. Result for Cc1cc(CN(C)C(=O)c2cccc(N3CCCS3(=O)=O)c2)no1 was ClpP1P2: 4.175%; TcHisRS: 4.678%; PfKRS1: 0.2504%; Pks13 thioesterase: -11.69%. With Cc1nn(C)c(C)c1C1COCCN1C(=O)c1n[nH]c2ccccc12 (stereo unspecified) the screen gave ClpP1P2: 15.76%; TcHisRS: -2.29%; PfKRS1: 4.788%. Cc1cc(S(=O)(=O)N2CCCc3cc(Cl)ccc32)sc1C(=O)O read ClpP1P2: 5.498%; TcHisRS: -20%; PfKRS1: 6.839%; Pks13 thioesterase: 7.913%. CNS(=O)(=O)c1ccc(CNC(=O)c2cc(C)no2)cc1 read ClpP1P2: 5.076%; TcHisRS: 0.6494%; PfKRS1: 5.845%; Pks13 thioesterase: -8.956%.

For Cc1cc(F)cc(S(=O)(=O)Nc2ccn(CCCC#N)n2)c1 the result was ClpP1P2: -11.33%; TcHisRS: 1.22%; PfKRS1: 7.725%; Pks13 thioesterase: -2.503%. COc1cc(NCc2ccccc2-n2cncn2)nc(N)n1 gave ClpP1P2: -10.3%; TcHisRS: 8.19%; PfKRS1: 6.328%; Pks13 thioesterase: -26.53%. With Cc1nc(CC(=O)N2CCCC2c2nc(-c3ccccc3)no2)cs1 (stereo unspecified) the screen gave ClpP1P2: -8.635%; TcHisRS: 2.041%; PfKRS1: 3.364%. O=C(COCC1CC1)NCC(c1ccccc1)N1CCc2sccc2C1 (stereo unspecified) gave ClpP1P2: -7.997%; TcHisRS: -0.5128%; PfKRS1: 1.967%; Pks13 thioesterase: -22.71%. CC(C)(C)c1nnc(NCC(=O)N2CCc3sccc3C2)s1 gave ClpP1P2: 7.016%; TcHisRS: 0%; PfKRS1: 10.16%; Pks13 thioesterase: -12.82%. For Cc1cc(Cl)ccc1NCC(=O)Nc1cc(C(C)(C)C)no1 the result was ClpP1P2: 9.016%; TcHisRS: 12.5%; PfKRS1: 3.951%; Pks13 thioesterase: -10.29%. Result for CC(C)CN1C(=O)C2(CCN(Cc3ccc(F)cc3)C2)c2ccccc21 (stereo unspecified) was ClpP1P2: -14.93%; TcHisRS: 11%; PfKRS1: 2.954%; Pks13 thioesterase: -22.11%.

Result for COc1cccc(CN2CCC3(CCN(C(=O)C4CC=CC4)CC3)C2)c1 was ClpP1P2: -8.5%; TcHisRS: 7.463%; PfKRS1: 2.032%; Pks13 thioesterase: -5.883%. With Cc1cnn(C2CCCN(C(=O)c3ccc(N4CCCC4)nn3)C2)c1 (stereo unspecified) the screen gave ClpP1P2: -1.916%; TcHisRS: 5.202%; PfKRS1: -0.291%; Pks13 thioesterase: -16.79%. Cc1oc2c(c1C(=O)N1CC[C@H](O)[C@]3(CCCO3)C1)CCCC2 gave ClpP1P2: 6.189%; TcHisRS: 8.333%; PfKRS1: 1.437%; Pks13 thioesterase: 7.512%. With COC(C)c1noc(CN(C)c2ncccn2)n1 (stereo unspecified) the screen gave ClpP1P2: -4.544%; TcHisRS: 0%; PfKRS1: -2.7%; Pks13 thioesterase: -24.78%. CN(Cc1cc2n(n1)CCNC2)Cc1n[nH]c2c1CCC2 gave ClpP1P2: -8.936%; TcHisRS: -0.4292%; PfKRS1: 5.063%; Pks13 thioesterase: -17.75%. With Cc1ccccc1C1(CN)CCCCC1 the screen gave ClpP1P2: -7.566%; TcHisRS: 3.571%; PfKRS1: -1.418%; Pks13 thioesterase: -9.022%. Result for O=C1CC(c2ccc(C(=O)O)cc2)c2ncn(-c3ccccc3Cl)c2N1 (stereo unspecified) was ClpP1P2: 5.044%; TcHisRS: 6.818%; PfKRS1: 5.207%; Pks13 thioesterase: -19.54%.

Result for Cn1cc2ncn(CCC3CCN(Cc4ccccc4)C3)c(=O)c2n1 (stereo unspecified) was ClpP1P2: -10.15%; TcHisRS: 6.154%; PfKRS1: 1.836%; Pks13 thioesterase: -15.76%. For O=C(NCCNc1ncccn1)C1CCN(C(=O)NC2CC2)CC1 the result was ClpP1P2: -2.38%; TcHisRS: 4.07%; PfKRS1: 3.275%; Pks13 thioesterase: 7.515%. With Cc1cc(Cn2cncc(Br)c2=O)on1 the screen gave ClpP1P2: -10.13%; TcHisRS: -5.102%; PfKRS1: 2.088%; Pks13 thioesterase: -16.46%.

2 of the entries, repeated:

{"compound": "CN(Cc1cc2n(n1)CCNC2)Cc1n[nH]c2c1CCC2", "ClpP1P2": -8.936, "TcHisRS": -0.4292, "PfKRS1": 5.063, "Pks13 thioesterase": -17.75}
{"compound": "CC(C)CN1C(=O)C2(CCN(Cc3ccc(F)cc3)C2)c2ccccc21", "stereo": "stereo unspecified", "ClpP1P2": -14.93, "TcHisRS": 11, "PfKRS1": 2.954, "Pks13 thioesterase": -22.11}